Data as given in PubChem BioAssay AID1259254 (NCATS, 2017).
Here is one part, drawn at random, of about 59,000 deposited reagents. About 1,550 of all reagents (2.6%) count as active. 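G2 share is only a proxy for re-replication; each gene was hit by three separate siRNAs, and active genes were retested.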 Raw values vary from plate to plate and are shown uncorrected. Reagents against one gene are numbered here. No sequences are given here. Not given: the amount of reagent.

Purpose: 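Gene knock-downs that lead to re-replication, shown by excess G2 DNA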 (primary screen)
System: human HCT116 colorectal cancer cells
Reagents: single siRNA against human genes
Time to read-out: 3 days
Measurement: 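Nuclei stained with Hoechst and imaged; cell-cycle phase assigned by DNA content; G2 share scaled per plate, non-targeting siRNA 0%, GMNN siRNA 100%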
Direction: G2 robust z-score and G2 cells, % of GMNN control: higher = more G2 cells, more excess DNA replication; raw share of cells in G2: higher = larger share of cells with G2 DNA content
Hit rule: 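An siRNA counts as active if its G2 robust z-score lies at least 5 MADs above the screen median; here such calls match roughly 38% of GMNN control or more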

target gene	reagent	G2 robust z-score	G2 cells, % of GMNN control	raw share of cells in G2 (%)	Outcome
NR1I2	1	-0.531	-0.77	5.42	inactive
NR1I2	2	-1.23	-5.66	2.61	inactive
NR1I2	3	5.92	44.6	18.7	active
OR8B12	1	-0.171	1.76	3.76	inactive
OR8B12	2	0.000319	2.97	4.65	inactive
OR8B12	3	-0.594	-1.21	2.71	inactive
DNAI3	1	1.21	11.5	8.5	inactive
DNAI3	2	-0.148	1.93	3.71	inactive
DNAI3	3	-0.531	-0.769	2.3	inactive
PCYT1B	1	-0.0302	2.76	4.14	inactive
PCYT1B	2	4.46	34.3	18.2	inactive
PCYT1B	3	0.3	5.08	6.81	inactive
ISL1-DT	1	2.6	21.3	10.3	inactive
ISL1-DT	2	0.311	5.16	5.61	inactive
ISL1-DT	3	0.486	6.39	5.84	inactive
WNT11	1	3.26	25.9	16.6	inactive
WNT11	2	0.401	5.79	6.19	inactive
WNT11	3	-0.34	0.572	3.55	inactive
GLP1R	1	-1.02	-4.19	4.35	inactive
GLP1R	2	-1.03	-4.27	3.02	inactive
GLP1R	3	1.06	10.4	6.47	inactive
TMEM268	1	0.934	9.54	7.04	inactive
TMEM268	2	1.3	12.1	7.28	inactive
TMEM268	3	0.0399	3.25	4.23	inactive
GSG1L2	1	0.321	5.22	5.63	inactive
GSG1L2	2	-0.437	-0.106	3.23	inactive
GSG1L2	3	0.425	5.95	4.88	inactive
PLEKHJ1	1	-1.02	-4.18	2.59	inactive
PLEKHJ1	2	6.31	47.4	27.2	active
PLEKHJ1	3	-0.276	1.03	4.81	inactive
OR8D1	1	-0.175	1.73	4.27	inactive
OR8D1	2	-0.244	1.25	3.53	inactive
OR8D1	3	3.01	24.1	10.6	inactive
CDK2	1	-1.35	-6.5	3.46	inactive
CDK2	2	-1.27	-5.94	3.41	inactive
CDK2	3	-1.22	-5.63	2.04	inactive
RNFT2	1	-0.00161	2.96	5.34	inactive
RNFT2	2	-0.369	0.372	3.12	inactive
RNFT2	3	2.18	18.3	8.73	inactive
FCGR1A	1	-0.837	-2.92	4.15	inactive
FCGR1A	2	1.53	13.7	8.55	inactive
FCGR1A	3	0.938	9.56	8.71	inactive
UBE3A	1	-0.728	-2.15	4.69	inactive
UBE3A	2	1.24	11.7	8.32	inactive
UBE3A	3	-0.186	1.66	4.88	inactive
PLEKHD1	1	-0.815	-2.76	2.81	inactive
PLEKHD1	2	-0.808	-2.72	2.44	inactive
PLEKHD1	3	-1.06	-4.5	2.93	inactive
COPS3	1	1.08	10.5	9.32	inactive
COPS3	2	-0.135	2.02	5.43	inactive
COPS3	3	0.131	3.89	6.63	inactive
TLDC2	1	-0.952	-3.73	2.77	inactive
TLDC2	2	-0.299	0.865	3.38	inactive
TLDC2	3	0.044	3.28	3.77	inactive
CLC	1	-0.957	-3.77	3.54	inactive
CLC	2	0.565	6.94	6.63	inactive
CLC	3	-0.931	-3.58	2.12	inactive
NHERF4	1	2.31	19.2	7.64	inactive
NHERF4	2	-0.824	-2.83	3.27	inactive
NHERF4	3	0.123	3.83	5.98	inactive
USP14	1	-0.822	-2.81	4.58	inactive
USP14	2	-0.365	0.396	5.05	inactive
USP14	3	0.366	5.54	5.98	inactive
SACM1L	1	-0.27	1.07	5.4	inactive
SACM1L	2	-0.0665	2.5	5.17	inactive
SACM1L	3	-0.431	-0.066	3.15	inactive
RFC4	1	-0.0278	2.77	5.93	inactive
RFC4	2	5.61	42.5	20.9	active
RFC4	3	-0.916	-3.48	2.99	inactive

In a second layout: 3 of the entries above
{"target gene":"FCGR1A","reagent":2,"G2 robust z-score":1.53,"G2 cells, % of GMNN control":13.7,"raw share of cells in G2 (%)":8.55,"Outcome":"inactive"}
{"target gene":"FCGR1A","reagent":3,"G2 robust z-score":0.938,"G2 cells, % of GMNN control":9.56,"raw share of cells in G2 (%)":8.71,"Outcome":"inactive"}
{"target gene":"UBE3A","reagent":1,"G2 robust z-score":-0.728,"G2 cells, % of GMNN control":-2.15,"raw share of cells in G2 (%)":4.69,"Outcome":"inactive"}
